Test results from the supplement of paper PMC8728848.
Some of the results follow.

Legend:
Assay in all cases: glycan array binding signal (z-score within array); higher = stronger binding
Conditions in all cases: glycan notation: IUPAC condensed, linker removed
[1] = target: Gal(b1-4)GlcNAc(b1-3)Gal(b1-4)GlcNAc(b1-3)Gal(b1-4)GlcNAc(b1-3)Gal(b1-4)GlcNAc(b1-2)Man(a1-3)[Gal(b1-4)GlcNAc(b1-3)Gal(b1-4)GlcNAc(b1-3)Gal(b1-4)GlcNAc(b1-3)Gal(b1-4)GlcNAc(b1-2)Man(a1-6)]Man(b1-4)GlcNAc(b1-4)[Fuc(a1-6)]GlcNAc
How it was run: (§1)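 Glycan array binding is given as a within-array Z-score, which can be read as non-binding when negative. The arrays, 3228 of them, came from the Consortium for Functional Glycomics database and were retained only where the protein sequence was available. Z-scores were averaged across arrays of the same protein sequence at different concentrations or buffers and across linkers.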

[2] = target: Gal(b1-4)GlcNAc(b1-3)Gal(b1-4)GlcNAc(b1-3)Gal(b1-4)GlcNAc(b1-3)Gal(b1-4)GlcNAc(b1-2)[Gal(b1-4)GlcNAc(b1-3)Gal(b1-4)GlcNAc(b1-3)Gal(b1-4)GlcNAc(b1-3)Gal(b1-4)GlcNAc(b1-6)]Man(a1-6)[Gal(b1-4)GlcNAc(b1-3)Gal(b1-4)GlcNAc(b1-3)Gal(b1-4)GlcNAc(b1-3)Gal(b1-4)GlcNAc(b1-2)Man(a1-3)]Man(b1-4)GlcNAc(b1-4)[Fuc(a1-6)]GlcNAc
How it was run: as §1

[3] = target: Gal(b1-4)GlcNAc(b1-3)Gal(b1-4)GlcNAc(b1-3)Gal(b1-4)GlcNAc(b1-3)Gal(b1-4)GlcNAc(b1-3)Gal(b1-4)GlcNAc(b1-2)Man(a1-3)[Gal(b1-4)GlcNAc(b1-3)Gal(b1-4)GlcNAc(b1-3)Gal(b1-4)GlcNAc(b1-3)Gal(b1-4)GlcNAc(b1-3)Gal(b1-4)GlcNAc(b1-2)Man(a1-6)]Man(b1-4)GlcNAc(b1-4)GlcNAc
How it was run: as §1

[4] = target: Gal(b1-4)GlcNAc(b1-3)Gal(b1-4)GlcNAc(b1-3)Gal(b1-4)GlcNAc(b1-3)Gal(b1-4)GlcNAc(b1-3)Gal(b1-4)GlcNAc(b1-2)Man(a1-3)[Gal(b1-4)GlcNAc(b1-3)Gal(b1-4)GlcNAc(b1-3)Gal(b1-4)GlcNAc(b1-3)Gal(b1-4)GlcNAc(b1-3)Gal(b1-4)GlcNAc(b1-2)Man(a1-6)]Man(b1-4)GlcNAc(b1-4)[Fuc(a1-6)]GlcNAc
How it was run: as §1

[5] = target: Gal(b1-4)GlcNAc(b1-3)Gal(b1-4)GlcNAc(b1-3)Gal(b1-4)GlcNAc(b1-3)Gal(b1-4)GlcNAc(b1-3)Gal(b1-4)GlcNAc(b1-2)[Gal(b1-4)GlcNAc(b1-3)Gal(b1-4)GlcNAc(b1-3)Gal(b1-4)GlcNAc(b1-3)Gal(b1-4)GlcNAc(b1-3)Gal(b1-4)GlcNAc(b1-6)]Man(a1-6)[Gal(b1-4)GlcNAc(b1-3)Gal(b1-4)GlcNAc(b1-3)Gal(b1-4)GlcNAc(b1-3)Gal(b1-4)GlcNAc(b1-3)Gal(b1-4)GlcNAc(b1-2)Man(a1-3)]Man(b1-4)GlcNAc(b1-4)[Fuc(a1-6)]GlcNAc
How it was run: as §1

[6] = target: Gal(b1-4)GlcNAc(b1-3)Gal(b1-4)GlcNAc(b1-3)Gal(b1-4)GlcNAc(b1-3)Gal(b1-4)GlcNAc(b1-3)Gal(b1-4)GlcNAc(b1-3)Gal(b1-4)GlcNAc(b1-2)Man(a1-3)[Gal(b1-4)GlcNAc(b1-3)Gal(b1-4)GlcNAc(b1-3)Gal(b1-4)GlcNAc(b1-3)Gal(b1-4)GlcNAc(b1-3)Gal(b1-4)GlcNAc(b1-3)Gal(b1-4)GlcNAc(b1-2)Man(a1-6)]Man(b1-4)GlcNAc(b1-4)GlcNAc
How it was run: as §1

[7] = target: Gal(b1-4)GlcNAc(b1-3)Gal(b1-4)GlcNAc(b1-3)GalNAc
How it was run: as §1

[8] = target: Gal(b1-4)GlcNAc(b1-3)Gal(b1-4)GlcNAc(b1-3)[Gal(b1-4)GlcNAc(b1-3)Gal(b1-4)GlcNAc(b1-6)]GalNAc
How it was run: as §1

[9] = target: Gal(b1-4)GlcNAc(b1-3)Gal(b1-4)GlcNAc(b1-6)[Gal(b1-3)]GalNAc
How it was run: as §1

[10] = target: Gal(b1-4)GlcNAc(b1-3)Gal(b1-4)[Fuc(a1-3)GlcNAc(b1-6)]Gal(b1-4)Glc
How it was run: as §1

[11] = target: Gal(b1-4)GlcNAc(b1-3)Gal(b1-4)[Fuc(a1-3)]GlcNAc(b1-3)Gal(b1-4)[Fuc(a1-3)]GlcNAc
How it was run: as §1

[12] = target: Gal(b1-4)GlcNAc(b1-3)GalNAc
How it was run: as §1

[13] = target: Gal(b1-4)GlcNAc(b1-3)[Gal(b1-4)GlcNAc(b1-6)]Gal(b1-4)GlcNAc
How it was run: as §1

[14] = target: Gal(b1-4)GlcNAc(b1-3)[GlcNAc(b1-6)]Gal(b1-4)GlcNAc
How it was run: as §1

[15] = target: Gal(b1-4)GlcNAc(b1-6)Gal(b1-4)GlcNAc
How it was run: as §1

[16] = target: Gal(b1-4)GlcNAc(b1-6)GalNAc
How it was run: as §1

[17] = target: Gal(b1-4)GlcNAc(b1-6)[Gal(b1-3)]GalNAc
How it was run: as §1

[18] = target: Gal(b1-4)GlcNAc(b1-6)[Gal(b1-4)GlcNAc(b1-3)]GalNAc
How it was run: as §1

Gal(b1-4)GlcNAc6P = target: Gal(b1-4)GlcNAc6P
How it was run: as §1

Gal(b1-6)Gal = target: Gal(b1-6)Gal
How it was run: as §1

Gal3S(b1-3)GalNAc = target: Gal3S(b1-3)GalNAc
How it was run: as §1

Gal3S(b1-3)GlcNAc = target: Gal3S(b1-3)GlcNAc
How it was run: as §1

[19] = target: Gal3S(b1-3)[Fuc(a1-4)]GalNAc
How it was run: as §1

[20] = target: Gal3S(b1-3)[Fuc(a1-4)]GlcNAc
How it was run: as §1

Gal3S(b1-4)Glc = target: Gal3S(b1-4)Glc
How it was run: as §1

Gal3S(b1-4)Glc6S = target: Gal3S(b1-4)Glc6S
How it was run: as §1

Gal3S(b1-4)GlcNAc = target: Gal3S(b1-4)GlcNAc
How it was run: as §1

[21] = target: Gal3S(b1-4)[Fuc(a1-3)]Glc6S
How it was run: as §1

[22] = target: Gal3S(b1-4)[Fuc(a1-3)]GlcNAc
How it was run: as §1

[23] = target: Gal3S(b1-4)[Fuc(a1-3)]GlcNAc6S
How it was run: as §1

Gal3S4S(b1-4)GlcNAc = target: Gal3S4S(b1-4)GlcNAc
How it was run: as §1

Gal3S6S(b1-4)GlcNAc = target: Gal3S6S(b1-4)GlcNAc
How it was run: as §1

Gal3S6S(b1-4)GlcNAc6S = target: Gal3S6S(b1-4)GlcNAc6S
How it was run: as §1

Gal4S(b1-4)GlcNAc = target: Gal4S(b1-4)GlcNAc
How it was run: as §1

Gal4S6S(b1-4)GlcNAc = target: Gal4S6S(b1-4)GlcNAc
How it was run: as §1

Gal6P(b1-4)GlcNAc = target: Gal6P(b1-4)GlcNAc
How it was run: as §1

Gal6S(b1-3)GlcNAc = target: Gal6S(b1-3)GlcNAc
How it was run: as §1

Gal6S(b1-3)GlcNAc6S = target: Gal6S(b1-3)GlcNAc6S
How it was run: as §1

B1: RbmA (Vibrio cholerae), A0A2H4NFB8 (protein)
chain: MSNFKGSIMNKRHYYLASCLALLFSTASYAEVDCELQPVIEANLSLNQNQLASNGGYISSQLGIRNESCETVKFKYWLSIKGPEGIYFPAKAVVGVDTAQQESDALTDGRMLNVTRGFWVPEYMADGKYTVSLQVVAENGEVFKANQEFVKGGDLNSLPELNGLTIDIKNQFGINSVESTGGFVPFTIDLNNGREGEAKVEFWMTAVGPDGLIIPVHSREKWMIIAGNTFSKVRGINFDKSYPAGEYTINAQVVDIVSGERVEQLMTVVKK
glycan array binding signal (z-score) [1]: 0.472 | glycan array binding signal (z-score) [2]: 4.03 | glycan array binding signal (z-score) [3]: 5.93 | glycan array binding signal (z-score) [4]: 1.64 | glycan array binding signal (z-score) [5]: 7.99 | glycan array binding signal (z-score) [6]: -0.267 | glycan array binding signal (z-score) [7]: 0.081 | glycan array binding signal (z-score) [8]: -0.3 | glycan array binding signal (z-score) [9]: -0.926 | glycan array binding signal (z-score) [10]: -0.866 | glycan array binding signal (z-score) [11]: 0.661 | glycan array binding signal (z-score) [12]: -0.505 | glycan array binding signal (z-score) [13]: -0.496 | glycan array binding signal (z-score) [14]: -0.799 | glycan array binding signal (z-score) [15]: 0.566 | glycan array binding signal (z-score) [16]: -0.865 | glycan array binding signal (z-score) [17]: -0.35 | glycan array binding signal (z-score) [18]: -0.156 | glycan array binding signal (z-score) (Gal(b1-4)GlcNAc6P): -0.433 | glycan array binding signal (z-score) (Gal(b1-6)Gal): -0.486 | glycan array binding signal (z-score) (Gal3S(b1-3)GalNAc): -0.835 | glycan array binding signal (z-score) (Gal3S(b1-3)GlcNAc): 0.506 | glycan array binding signal (z-score) [19]: 0.825 | glycan array binding signal (z-score) [20]: 1.05 | glycan array binding signal (z-score) (Gal3S(b1-4)Glc): -0.285 | glycan array binding signal (z-score) (Gal3S(b1-4)Glc6S): -0.319 | glycan array binding signal (z-score) (Gal3S(b1-4)GlcNAc): -0.123 | glycan array binding signal (z-score) [21]: 0.205 | glycan array binding signal (z-score) [22]: -0.325 | glycan array binding signal (z-score) [23]: -0.157 | glycan array binding signal (z-score) (Gal3S4S(b1-4)GlcNAc): -0.008 | glycan array binding signal (z-score) (Gal3S6S(b1-4)GlcNAc): 0.559 | glycan array binding signal (z-score) (Gal3S6S(b1-4)GlcNAc6S): 0.952 | glycan array binding signal (z-score) (Gal4S(b1-4)GlcNAc): 3.32 | glycan array binding signal (z-score) (Gal4S6S(b1-4)GlcNAc): -0.354 | glycan array binding signal (z-score) (Gal6P(b1-4)GlcNAc): 0.524 | glycan array binding signal (z-score) (Gal6S(b1-3)GlcNAc): -1 | glycan array binding signal (z-score) (Gal6S(b1-3)GlcNAc6S): -0.99
